Paper doi:10.1101/642959
These are yes or no findings as the source states them, for the method shown. In cells and extracts the contact can be indirect. Some results given as binding are weak or reduced against the parent protein; the word gives no strength.

The chains behind the UniProt entries cited, without tags or fusion partners.
UniProt Q9UQE7: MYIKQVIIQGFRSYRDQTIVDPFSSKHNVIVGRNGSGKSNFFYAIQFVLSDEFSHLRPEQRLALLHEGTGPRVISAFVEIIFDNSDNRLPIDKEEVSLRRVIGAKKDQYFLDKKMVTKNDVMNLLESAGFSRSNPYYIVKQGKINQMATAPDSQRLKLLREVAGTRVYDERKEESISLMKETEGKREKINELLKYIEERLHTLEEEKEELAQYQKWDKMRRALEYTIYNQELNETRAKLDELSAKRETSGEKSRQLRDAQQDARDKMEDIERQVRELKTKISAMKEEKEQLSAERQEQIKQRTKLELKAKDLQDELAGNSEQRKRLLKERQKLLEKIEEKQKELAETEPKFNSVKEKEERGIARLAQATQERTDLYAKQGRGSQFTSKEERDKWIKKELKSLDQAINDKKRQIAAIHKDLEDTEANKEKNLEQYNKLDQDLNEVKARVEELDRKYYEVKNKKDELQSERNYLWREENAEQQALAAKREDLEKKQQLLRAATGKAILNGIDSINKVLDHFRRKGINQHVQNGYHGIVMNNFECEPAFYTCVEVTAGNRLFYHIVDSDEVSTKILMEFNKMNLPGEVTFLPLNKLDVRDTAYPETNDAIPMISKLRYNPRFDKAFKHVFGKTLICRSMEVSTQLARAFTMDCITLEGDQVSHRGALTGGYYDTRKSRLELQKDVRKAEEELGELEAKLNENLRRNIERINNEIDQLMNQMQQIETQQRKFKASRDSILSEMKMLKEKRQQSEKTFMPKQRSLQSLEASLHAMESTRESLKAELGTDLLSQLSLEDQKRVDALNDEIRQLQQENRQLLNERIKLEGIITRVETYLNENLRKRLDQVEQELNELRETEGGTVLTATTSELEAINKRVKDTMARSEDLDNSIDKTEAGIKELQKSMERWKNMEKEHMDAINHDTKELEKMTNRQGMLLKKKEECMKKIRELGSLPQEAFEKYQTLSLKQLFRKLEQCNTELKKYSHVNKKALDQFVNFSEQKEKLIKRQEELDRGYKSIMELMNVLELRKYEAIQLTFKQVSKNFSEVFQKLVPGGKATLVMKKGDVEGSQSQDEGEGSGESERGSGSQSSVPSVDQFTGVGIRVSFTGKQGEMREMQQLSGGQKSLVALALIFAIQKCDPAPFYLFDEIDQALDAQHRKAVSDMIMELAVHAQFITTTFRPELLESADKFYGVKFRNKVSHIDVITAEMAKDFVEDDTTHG

Target: SMC3 (human (endogenous in HCT116)) (UniProt Q9UQE7)
Test: co-IP

Binder | binding
SA1-mAID-mClover (protein, UniProt Q8WVM7 1-1258) MITSELPVLQDSTNETTAHSDAGSELEETEVKGKRKRGRPGRPPSTNKKPRKSPGEKSRIEAGIRGAGRGRANGHPQQNGEGEPVTLFEVVKLGKSAMQSVVDDWIESYKQDRDIALLDLINFFIQCSGCRGTVRIEMFRNMQNAEIIRKMTEEFDEDSGDYPLTMPGPQWKKFRSNFCEFIGVLIRQCQYSIIYDEYMMDTVISLLTGLSDSQVRAFRHTSTLAAMKLMTALVNVALNLSIHQDNTQRQYEAERNKMIGKRANERLELLLQKRKELQENQDEIENMMNSIFKGIFVHRYRDAIAEIRAICIEEIGVWMKMYSDAFLNDSYLKYVGWTLHDRQGEVRLKCLKALQSLYTNRELFPKLELFTNRFKDRIVSMTLDKEYDVAVEAIRLVTLILHGSEEALSNEDCENVYHLVYSAHRPVAVAAGEFLHKKLFSRHDPQAEEALAKRRGRNSPNGNLIRMLVLFFLESELHEHAAYLVDSLWESSQELLKDWECMTELLLEEPVQGEEAMSDRQESALIELMVCTIRQAAEAHPPVGRGTGKRVLTAKERKTQIDDRNKLTEHFIITLPMLLSKYSADAEKVANLLQIPQYFDLEIYSTGRMEKHLDALLKQIKFVVEKHVESDVLEACSKTYSILCSEEYTIQNRVDIARSQLIDEFVDRFNHSVEDLLQEGEEADDDDIYNVLSTLKRLTSFHNAHDLTKWDLFGNCYRLLKTGIEHGAMPEQIVVQALQCSHYSILWQLVKITDGSPSKEDLLVLRKTVKSFLAVCQQCLSNVNTPVKEQAFMLLCDLLMIFSHQLMTGGREGLQPLVFNPDTGLQSELLSFVMDHVFIDQDEENQSMEGDEEDEANKIEALHKRRNLLAAFSKLIIYDIVDMHAAADIFKHYMKYYNDYGDIIKETLSKTRQIDKIQCAKTLILSLQQLFNELVQEQGPNLDRTSAHVSGIKELARRFALTFGLDQIKTREAVATLHKDGIEFAFKYQNQKGQEYPPPNLAFLEVLSEFSSKLLRQDKKTVHSYLEKFLTEQMMERREDVWLPLISYRNSLVTGGEDDRMSVNSGSSSSKTSSVRNKKGRPPLHKKRVEDESLDNTWLNRTDTMIQTPGPLPAPQLTSTVLRENSRPMGDQIQEPESEHGSEPDFLHNPQMQISWLGQPKLEDLNRKDRTGMNYMKVRTGVRHAVRGLMEEDAEPIFEDVMMSSRSQLEDMNEEFEDTMVIDLPPSRNRRERAELRPDFFDSAAIIEDDSGFGMPMF | binds
SA2-AID-mClover (protein, UniProt Q8N3U4 1-1231) MIAAPEIPTDFNLLQESETHFSSDTDFEDIEGKNQKQGKGKTCKKGKKGPAEKGKGGNGGGKPPSGPNRMNGHHQQNGVENMMLFEVVKMGKSAMQSVVDDWIESYKHDRDIALLDLINFFIQCSGCKGVVTAEMFRHMQNSEIIRKMTEEFDEDSGDYPLTMAGPQWKKFKSSFCEFIGVLVRQCQYSIIYDEYMMDTVISLLTGLSDSQVRAFRHTSTLAAMKLMTALVNVALNLSINMDNTQRQYEAERNKMIGKRANERLELLLQKRKELQENQDEIENMMNAIFKGVFVHRYRDAIAEIRAICIEEIGIWMKMYSDAFLNDSYLKYVGWTMHDKQGEVRLKCLTALQGLYYNKELNSKLELFTSRFKDRIVSMTLDKEYDVAVQAIKLLTLVLQSSEEVLTAEDCENVYHLVYSAHRPVAVAAGEFLYKKLFSRRDPEEDGMMKRRGRQGPNANLVKTLVFFFLESELHEHAAYLVDSMWDCATELLKDWECMNSLLLEEPLSGEEALTDRQESALIEIMLCTIRQAAECHPPVGRGTGKRVLTAKEKKTQLDDRTKITELFAVALPQLLAKYSVDAEKVTNLLQLPQYFDLEIYTTGRLEKHLDALLRQIRNIVEKHTDTDVLEACSKTYHALCNEEFTIFNRVDISRSQLIDELADKFNRLLEDFLQEGEEPDEDDAYQVLSTLKRITAFHNAHDLSKWDLFACNYKLLKTGIENGDMPEQIVIHALQCTHYVILWQLAKITESSSTKEDLLRLKKQMRVFCQICQHYLTNVNTTVKEQAFTILCDILMIFSHQIMSGGRDMLEPLVYTPDSSLQSELLSFILDHVFIEQDDDNNSADGQQEDEASKIEALHKRRNLLAAFCKLIVYTVVEMNTAADIFKQYMKYYNDYGDIIKETMSKTRQIDKIQCAKTLILSLQQLFNEMIQENGYNFDRSSSTFSGIKELARRFALTFGLDQLKTREAIAMLHKDGIEFAFKEPNPQGESHPPLNLAFLDILSEFSSKLLRQDKRTVYVYLEKFMTFQMSLRREDVWLPLMSYRNSLLAGGDDDTMSVISGISSRGSTVRSKKSKPSTGKRKVVEGMQLSLTEESSSSDSMWLSREQTLHTPVMMQTPQLTSTIMREPKRLRPEDSFMSVYPMQTEHHQTPLDYNRRGTSLMEDDEEPIVEDVMMSSEGRIEDLNEGMDFDTMDIDLPPSKNRRERTELKPDFFDPASIMDESVLGVSMF | binds
